Source: paper PMC5538822, “RNA-dependent stabilization of SUV39H1 at constitutive heterochromatin”
Where a chain is given by its changes, count along the chain named. Results are given in words; binding and its absence hold for the method and conditions named. Binding seen in cells or lysates may run through a third protein. Some results given as binding are weak or reduced against the parent protein; the word gives no strength. Where a sequence is shown, tags or fusion partners need not be part of it.

The chains behind the UniProt entries cited, without tags or fusion partners.
UniProt P45973: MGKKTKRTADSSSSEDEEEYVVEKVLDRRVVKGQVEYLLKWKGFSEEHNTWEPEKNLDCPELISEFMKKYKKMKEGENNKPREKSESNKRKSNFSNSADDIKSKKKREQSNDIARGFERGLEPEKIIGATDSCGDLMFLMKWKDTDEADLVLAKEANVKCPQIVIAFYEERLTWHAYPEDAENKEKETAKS

How the values were obtained:
SUV39H1-GFP (WT) (human) = target: T1, SUV39H1-GFP (WT) (human) (UniProt O43463); test: co-IP; GFP-tagged SUV39H1 precipitated with anti-GFP nanobody sepharose from lysates of HeLa Flp-In T-REx cells crosslinked with 0.1% formaldehyde (RIP protocol, denaturing lysis buffer); western blot with anti-SUV39H1 and anti-HP1α
T1 sequence: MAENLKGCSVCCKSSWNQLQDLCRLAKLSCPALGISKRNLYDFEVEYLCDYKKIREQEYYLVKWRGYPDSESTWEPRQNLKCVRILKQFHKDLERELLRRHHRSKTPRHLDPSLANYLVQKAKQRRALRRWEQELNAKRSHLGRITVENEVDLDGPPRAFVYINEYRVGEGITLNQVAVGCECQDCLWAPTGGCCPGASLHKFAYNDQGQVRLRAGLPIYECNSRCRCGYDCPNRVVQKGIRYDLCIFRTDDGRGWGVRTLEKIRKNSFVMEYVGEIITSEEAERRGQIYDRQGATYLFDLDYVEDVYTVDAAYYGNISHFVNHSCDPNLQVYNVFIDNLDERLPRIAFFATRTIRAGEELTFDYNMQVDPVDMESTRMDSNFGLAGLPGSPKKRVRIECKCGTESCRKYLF

SUV39H1^R55A-GFP (human) = target: T2, SUV39H1^R55A-GFP (human) (UniProt O43463); test: as above
T2 sequence: T1 sequence with R55A

binding (SUV39H1-GFP (WT) (human)): binds
binding (SUV39H1^R55A-GFP (human)): binds
Substance: HP1α (from UniProt P45973 1-191)
